Measurements taken from article doi:10.1101/2020.09.25.312835 (bioRxiv, 2020).
No constants are given. Whether binding was seen depends on the method and setting. In cells and extracts the contact can be indirect. Some binding calls cover weakened binding; strength is not graded here.

Chains of the proteins cited; added tags and fusions are not shown. Residues count along the entry.
UniProt P55203, 57-1110: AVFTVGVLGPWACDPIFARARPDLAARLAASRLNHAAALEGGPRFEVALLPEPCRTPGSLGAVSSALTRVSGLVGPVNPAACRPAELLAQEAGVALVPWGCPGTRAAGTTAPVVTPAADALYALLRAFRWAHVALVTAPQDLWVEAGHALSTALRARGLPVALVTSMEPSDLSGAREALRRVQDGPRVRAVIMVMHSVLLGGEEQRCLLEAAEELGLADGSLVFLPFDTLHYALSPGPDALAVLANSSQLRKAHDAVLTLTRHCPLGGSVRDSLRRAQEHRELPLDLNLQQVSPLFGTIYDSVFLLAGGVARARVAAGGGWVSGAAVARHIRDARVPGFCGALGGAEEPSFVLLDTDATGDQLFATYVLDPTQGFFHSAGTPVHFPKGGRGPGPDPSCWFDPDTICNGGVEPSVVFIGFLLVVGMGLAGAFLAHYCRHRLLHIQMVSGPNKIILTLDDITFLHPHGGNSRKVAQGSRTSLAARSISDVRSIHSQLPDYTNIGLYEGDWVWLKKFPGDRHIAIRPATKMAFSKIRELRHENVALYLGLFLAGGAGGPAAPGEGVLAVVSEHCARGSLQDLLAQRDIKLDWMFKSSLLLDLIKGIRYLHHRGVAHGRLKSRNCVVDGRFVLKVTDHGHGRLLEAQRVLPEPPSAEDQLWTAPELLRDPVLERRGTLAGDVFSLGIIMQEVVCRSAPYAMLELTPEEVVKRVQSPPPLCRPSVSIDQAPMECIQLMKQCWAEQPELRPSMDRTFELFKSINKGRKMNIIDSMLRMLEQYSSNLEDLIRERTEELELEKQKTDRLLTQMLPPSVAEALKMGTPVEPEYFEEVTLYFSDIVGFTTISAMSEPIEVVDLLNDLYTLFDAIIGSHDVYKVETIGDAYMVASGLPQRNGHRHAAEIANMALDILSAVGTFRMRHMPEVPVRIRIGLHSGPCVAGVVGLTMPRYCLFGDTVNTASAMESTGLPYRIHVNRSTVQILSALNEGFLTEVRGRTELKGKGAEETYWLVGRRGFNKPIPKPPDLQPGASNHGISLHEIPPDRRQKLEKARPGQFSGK

T1: full-length, human ROS-GC1 overexpressed in HEK293 cells (human), Q02846
T1 chain: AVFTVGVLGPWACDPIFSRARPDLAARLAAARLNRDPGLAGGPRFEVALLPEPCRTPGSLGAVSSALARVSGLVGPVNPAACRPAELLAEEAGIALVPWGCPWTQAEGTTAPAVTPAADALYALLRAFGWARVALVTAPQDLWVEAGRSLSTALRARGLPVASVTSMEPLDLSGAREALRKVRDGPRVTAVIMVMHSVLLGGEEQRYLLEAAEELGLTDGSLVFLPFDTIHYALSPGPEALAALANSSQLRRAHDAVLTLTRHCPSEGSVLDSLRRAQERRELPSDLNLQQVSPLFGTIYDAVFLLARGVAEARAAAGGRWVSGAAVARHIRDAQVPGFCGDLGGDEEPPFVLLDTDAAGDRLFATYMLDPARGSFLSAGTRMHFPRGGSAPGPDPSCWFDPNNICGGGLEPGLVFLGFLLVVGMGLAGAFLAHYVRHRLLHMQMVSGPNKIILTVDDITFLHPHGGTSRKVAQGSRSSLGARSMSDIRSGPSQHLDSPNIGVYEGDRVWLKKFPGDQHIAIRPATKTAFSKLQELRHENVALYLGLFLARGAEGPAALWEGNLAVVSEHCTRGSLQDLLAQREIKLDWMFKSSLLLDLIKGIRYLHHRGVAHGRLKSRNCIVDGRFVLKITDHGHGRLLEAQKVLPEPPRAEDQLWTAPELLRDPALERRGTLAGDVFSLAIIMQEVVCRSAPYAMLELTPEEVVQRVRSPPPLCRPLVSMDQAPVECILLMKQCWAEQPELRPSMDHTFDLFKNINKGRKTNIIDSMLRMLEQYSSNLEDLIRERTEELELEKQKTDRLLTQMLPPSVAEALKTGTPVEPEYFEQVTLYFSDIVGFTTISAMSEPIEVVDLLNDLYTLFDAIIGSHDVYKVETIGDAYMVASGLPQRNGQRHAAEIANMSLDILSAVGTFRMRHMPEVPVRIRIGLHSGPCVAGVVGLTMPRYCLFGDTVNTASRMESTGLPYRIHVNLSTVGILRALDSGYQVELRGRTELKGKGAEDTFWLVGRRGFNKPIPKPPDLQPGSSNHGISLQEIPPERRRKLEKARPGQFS


Legend:
[1] = target: rod-outer-segment guanylyl cyclase 1 (ROS-GC1), native full-length, bovine, from ROS preparations (bovine) (UniProt P55203); test: cross-linking
[2] = target: T1, full-length, human ROS-GC1 …; test: cross-linking; conditions: remark: other sources report otherwise

| Molecule | binding [1] | binding [2] |
| --- | --- | --- |
| rod-outer-segment guanylyl cyclase 1 (ROS-GC1), native full-length, bovine, from ROS preparations (from UniProt P55203 57-1110) (enzyme) | binds |  |
| full-length, human ROS-GC1 overexpressed in HEK293 cells, Q02846 52-1103 (enzyme) AVFTVGVLGPWACDPIFSRARPDLAARLAAARLNRDPGLAGGPRFEVALLPEPCRTPGSLGAVSSALARVSGLVGPVNPAACRPAELLAEEAGIALVPWGCPWTQAEGTTAPAVTPAADALYALLRAFGWARVALVTAPQDLWVEAGRSLSTALRARGLPVASVTSMEPLDLSGAREALRKVRDGPRVTAVIMVMHSVLLGGEEQRYLLEAAEELGLTDGSLVFLPFDTIHYALSPGPEALAALANSSQLRRAHDAVLTLTRHCPSEGSVLDSLRRAQERRELPSDLNLQQVSPLFGTIYDAVFLLARGVAEARAAAGGRWVSGAAVARHIRDAQVPGFCGDLGGDEEPPFVLLDTDAAGDRLFATYMLDPARGSFLSAGTRMHFPRGGSAPGPDPSCWFDPNNICGGGLEPGLVFLGFLLVVGMGLAGAFLAHYVRHRLLHMQMVSGPNKIILTVDDITFLHPHGGTSRKVAQGSRSSLGARSMSDIRSGPSQHLDSPNIGVYEGDRVWLKKFPGDQHIAIRPATKTAFSKLQELRHENVALYLGLFLARGAEGPAALWEGNLAVVSEHCTRGSLQDLLAQREIKLDWMFKSSLLLDLIKGIRYLHHRGVAHGRLKSRNCIVDGRFVLKITDHGHGRLLEAQKVLPEPPRAEDQLWTAPELLRDPALERRGTLAGDVFSLAIIMQEVVCRSAPYAMLELTPEEVVQRVRSPPPLCRPLVSMDQAPVECILLMKQCWAEQPELRPSMDHTFDLFKNINKGRKTNIIDSMLRMLEQYSSNLEDLIRERTEELELEKQKTDRLLTQMLPPSVAEALKTGTPVEPEYFEQVTLYFSDIVGFTTISAMSEPIEVVDLLNDLYTLFDAIIGSHDVYKVETIGDAYMVASGLPQRNGQRHAAEIANMSLDILSAVGTFRMRHMPEVPVRIRIGLHSGPCVAGVVGLTMPRYCLFGDTVNTASRMESTGLPYRIHVNLSTVGILRALDSGYQVELRGRTELKGKGAEDTFWLVGRRGFNKPIPKPPDLQPGSSNHGISLQEIPPERRRKLEKARPGQFS |  | binds |
